PubChem BioAssay AID1259405 – NCATS, 2018

Screen: 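Silenced genes that increase secreted GFP made by CHO cells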 (primary screen)
System: Chinese hamster CHO-K1 ovary cells with stable secreted eGFP expression
Reagents: single siRNA against mouse genes, 0.8 pmol siRNA per well (2 µl of 400 nM stock)
Time to read-out: 3 days
Read-out: 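Per-well intracellular GFP measured by laser scanning cytometry, plus viability from ATP luminescence, each relative to plate median of non-targeting control wells, in %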
Direction: GFP, % of control: higher = more GFP per well, higher productivity; viability (ATP), % of control: higher = more viable cells (more ATP)
Active means: 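Called active when intracellular GFP, relative to negative control, is at or above 120%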
This is an unselected part of about 50,000 reagents tested. In the full data, about 4,000 (8%) were called active. 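Mouse siRNA library applied to hamster cells; one well for each siRNA.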 The numbers tell different reagents against one gene apart.

Which result is listed for Rps6kb1 (GeneID 72508) #1?
GFP, % of control: 142; viability (ATP), % of control: 77.2; Outcome: active

What is on record for Rps6kb1 (GeneID 72508) #2?
GFP, % of control: 91.3; viability (ATP), % of control: 85.7; Outcome: inactive

With Rps6kb1 (GeneID 72508) #3, what was measured?
GFP, % of control: 90.1; viability (ATP), % of control: 95.4; Outcome: inactive

For Nr2c2ap (GeneID 75692) #1, what does the deposit list?
GFP, % of control: 63.9; viability (ATP), % of control: 76.4; Outcome: inactive

How did the screen score Nr2c2ap (GeneID 75692) #2?
GFP, % of control: 117; viability (ATP), % of control: 96.3; Outcome: inactive

What is on record for Nr2c2ap (GeneID 75692) #3?
GFP, % of control: 66.3; viability (ATP), % of control: 79.7; Outcome: inactive

What is on record for Or6z1 (GeneID 258915) #1?
GFP, % of control: 123; viability (ATP), % of control: 74.6; Outcome: active

For Or6z1 (GeneID 258915) #2, what does the deposit list?
GFP, % of control: 53.5; viability (ATP), % of control: 67.1; Outcome: inactive

For Or6z1 (GeneID 258915) #3, what does the deposit list?
GFP, % of control: 116; viability (ATP), % of control: 105; Outcome: inactive

With Nme8 (GeneID 73412) #1, what was measured?
GFP, % of control: 75.7; viability (ATP), % of control: 75.9; Outcome: inactive

Which result is listed for Nme8 (GeneID 73412) #2?
GFP, % of control: 89.8; viability (ATP), % of control: 76.1; Outcome: inactive

Which result is listed for Nme8 (GeneID 73412) #3?
GFP, % of control: 59.4; viability (ATP), % of control: 66.6; Outcome: inactive

What is on record for Pglyrp2 (GeneID 57757) #1?
GFP, % of control: 41.4; viability (ATP), % of control: 46.3; Outcome: inactive

For Pglyrp2 (GeneID 57757) #2, how do the results read?
GFP, % of control: 142; viability (ATP), % of control: 101; Outcome: active

With Tdrd1 (GeneID 83561) #1, what does the deposit list?
GFP, % of control: 101; viability (ATP), % of control: 101; Outcome: inactive

With Tdrd1 (GeneID 83561) #2, what was measured?
GFP, % of control: 89.5; viability (ATP), % of control: 68.6; Outcome: inactive

For Tdrd1 (GeneID 83561) #3, how do the results read?
GFP, % of control: 87.6; viability (ATP), % of control: 82.2; Outcome: inactive

How did the screen score Il10rb (GeneID 16155) #1?
GFP, % of control: 46.8; viability (ATP), % of control: 81.6; Outcome: inactive

How did the screen score Il10rb (GeneID 16155) #2?
GFP, % of control: 48.7; viability (ATP), % of control: 55.1; Outcome: inactive

With Dppa5a (GeneID 434423) #1, what was measured?
GFP, % of control: 77.8; viability (ATP), % of control: 68.6; Outcome: inactive

With Dppa5a (GeneID 434423) #2, what was measured?
GFP, % of control: 68.9; viability (ATP), % of control: 92.2; Outcome: inactive

How did the screen score Dppa5a (GeneID 434423) #3?
GFP, % of control: 133; viability (ATP), % of control: 53.3; Outcome: active

For Gtf2h4 (GeneID 14885) #1, what was measured?
GFP, % of control: 56.5; viability (ATP), % of control: 52.9; Outcome: inactive

For Gtf2h4 (GeneID 14885) #2, how do the results read?
GFP, % of control: 24.7; viability (ATP), % of control: 28.9; Outcome: inactive

With Gtf2h4 (GeneID 14885) #3, what was measured?
GFP, % of control: 87.8; viability (ATP), % of control: 79.8; Outcome: inactive

For Hemgn (GeneID 93966) #1, what was measured?
GFP, % of control: 75.5; viability (ATP), % of control: 59; Outcome: inactive

For Hemgn (GeneID 93966) #2, what does the deposit list?
GFP, % of control: 106; viability (ATP), % of control: 81.3; Outcome: inactive

How did the screen score Hemgn (GeneID 93966) #3?
GFP, % of control: 107; viability (ATP), % of control: 76.8; Outcome: inactive

For Exoc3l4 (GeneID 74190) #1, what does the deposit list?
GFP, % of control: 137; viability (ATP), % of control: 70.8; Outcome: active

What is on record for Exoc3l4 (GeneID 74190) #2?
GFP, % of control: 123; viability (ATP), % of control: 90.1; Outcome: active

What is on record for Exoc3l4 (GeneID 74190) #3?
GFP, % of control: 161; viability (ATP), % of control: 119; Outcome: active

For A030005L19Rik (GeneID 77922) #1, what was measured?
GFP, % of control: 71.8; viability (ATP), % of control: 50.7; Outcome: inactive

How did the screen score A030005L19Rik (GeneID 77922) #2?
GFP, % of control: 47.4; viability (ATP), % of control: 39.1; Outcome: inactive

What did the screen give for A030005L19Rik (GeneID 77922) #3?
GFP, % of control: 67.8; viability (ATP), % of control: 96.4; Outcome: inactive

Which result is listed for Szt2 (GeneID 230676) #1?
GFP, % of control: 34.4; viability (ATP), % of control: 72.4; Outcome: inactive

What did the screen give for Szt2 (GeneID 230676) #2?
GFP, % of control: 64.9; viability (ATP), % of control: 94.6; Outcome: inactive

What did the screen give for Szt2 (GeneID 230676) #3?
GFP, % of control: 160; viability (ATP), % of control: 150; Outcome: active

For Hacl1 (GeneID 56794) #1, what was measured?
GFP, % of control: 70.4; viability (ATP), % of control: 74.9; Outcome: inactive

How did the screen score Hacl1 (GeneID 56794) #2?
GFP, % of control: 108; viability (ATP), % of control: 86.8; Outcome: inactive

What is on record for Hacl1 (GeneID 56794) #3?
GFP, % of control: 74.9; viability (ATP), % of control: 105; Outcome: inactive
